Measurements from the supplement of paper PMC10849652.
Some of the results follow.

The chains behind the UniProt entries cited, without tags or fusion partners. Where a name states a change or a piece, a line headed by the entry shows the natural chain unless it says otherwise.
UniProt Q9HCM4: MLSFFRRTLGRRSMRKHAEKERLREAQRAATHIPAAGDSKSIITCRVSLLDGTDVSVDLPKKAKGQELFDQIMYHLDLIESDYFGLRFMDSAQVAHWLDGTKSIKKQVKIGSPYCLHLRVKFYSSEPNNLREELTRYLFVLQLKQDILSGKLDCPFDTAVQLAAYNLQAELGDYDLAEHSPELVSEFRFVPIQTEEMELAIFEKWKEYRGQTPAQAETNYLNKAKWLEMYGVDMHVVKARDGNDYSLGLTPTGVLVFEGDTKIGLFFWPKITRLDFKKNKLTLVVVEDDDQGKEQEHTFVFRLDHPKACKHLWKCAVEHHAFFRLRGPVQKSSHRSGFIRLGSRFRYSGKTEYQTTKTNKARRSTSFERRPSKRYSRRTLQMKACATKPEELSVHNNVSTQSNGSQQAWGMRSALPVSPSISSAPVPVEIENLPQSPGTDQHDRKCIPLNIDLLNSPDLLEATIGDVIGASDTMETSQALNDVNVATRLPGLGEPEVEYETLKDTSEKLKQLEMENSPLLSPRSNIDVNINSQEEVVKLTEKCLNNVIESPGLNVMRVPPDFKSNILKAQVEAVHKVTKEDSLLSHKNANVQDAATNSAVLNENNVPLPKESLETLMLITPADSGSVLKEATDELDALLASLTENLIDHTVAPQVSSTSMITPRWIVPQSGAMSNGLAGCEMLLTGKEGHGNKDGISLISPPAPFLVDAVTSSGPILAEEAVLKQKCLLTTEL
UniProt Q8TE02: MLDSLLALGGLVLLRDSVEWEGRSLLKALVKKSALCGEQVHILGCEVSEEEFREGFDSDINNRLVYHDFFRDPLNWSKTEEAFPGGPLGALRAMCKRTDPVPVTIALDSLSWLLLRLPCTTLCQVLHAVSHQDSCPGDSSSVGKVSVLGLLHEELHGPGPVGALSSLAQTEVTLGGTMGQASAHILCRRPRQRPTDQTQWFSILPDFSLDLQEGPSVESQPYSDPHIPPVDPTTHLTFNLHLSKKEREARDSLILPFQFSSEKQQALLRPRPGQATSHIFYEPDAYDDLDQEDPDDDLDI
UniProt Q8N5X7: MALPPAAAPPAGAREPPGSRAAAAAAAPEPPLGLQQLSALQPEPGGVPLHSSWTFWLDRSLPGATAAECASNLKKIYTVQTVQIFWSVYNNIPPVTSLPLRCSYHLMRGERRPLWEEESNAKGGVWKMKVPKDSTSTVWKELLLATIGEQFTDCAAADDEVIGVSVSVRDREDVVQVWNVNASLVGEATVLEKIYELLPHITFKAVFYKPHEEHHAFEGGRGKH
UniProt Q9Y6I3: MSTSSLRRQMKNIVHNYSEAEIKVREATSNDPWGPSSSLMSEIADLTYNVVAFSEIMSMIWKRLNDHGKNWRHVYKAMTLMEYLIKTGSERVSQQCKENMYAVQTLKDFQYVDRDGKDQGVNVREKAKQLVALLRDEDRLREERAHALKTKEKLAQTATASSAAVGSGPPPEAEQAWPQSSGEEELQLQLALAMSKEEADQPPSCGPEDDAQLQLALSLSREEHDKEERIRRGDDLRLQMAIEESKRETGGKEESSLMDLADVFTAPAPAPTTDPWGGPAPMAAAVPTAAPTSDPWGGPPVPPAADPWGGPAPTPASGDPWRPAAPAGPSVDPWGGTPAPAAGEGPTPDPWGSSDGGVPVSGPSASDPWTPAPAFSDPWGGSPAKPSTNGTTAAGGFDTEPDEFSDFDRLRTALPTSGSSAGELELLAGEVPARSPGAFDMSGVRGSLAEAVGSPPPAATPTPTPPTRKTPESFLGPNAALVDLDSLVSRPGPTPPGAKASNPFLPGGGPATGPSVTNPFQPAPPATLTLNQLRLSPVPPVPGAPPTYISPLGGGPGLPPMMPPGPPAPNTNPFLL
UniProt P26378: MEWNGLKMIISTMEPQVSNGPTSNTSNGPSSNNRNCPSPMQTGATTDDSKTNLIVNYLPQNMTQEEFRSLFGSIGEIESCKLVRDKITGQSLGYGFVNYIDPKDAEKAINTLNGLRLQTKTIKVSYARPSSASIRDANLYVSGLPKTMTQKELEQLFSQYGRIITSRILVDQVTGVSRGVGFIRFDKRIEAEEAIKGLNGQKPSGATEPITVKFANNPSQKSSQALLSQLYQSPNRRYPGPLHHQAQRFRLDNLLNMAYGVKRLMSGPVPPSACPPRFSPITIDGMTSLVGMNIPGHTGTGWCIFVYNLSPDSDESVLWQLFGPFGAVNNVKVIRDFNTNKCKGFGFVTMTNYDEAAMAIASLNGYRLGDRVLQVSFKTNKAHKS
UniProt Q96C92: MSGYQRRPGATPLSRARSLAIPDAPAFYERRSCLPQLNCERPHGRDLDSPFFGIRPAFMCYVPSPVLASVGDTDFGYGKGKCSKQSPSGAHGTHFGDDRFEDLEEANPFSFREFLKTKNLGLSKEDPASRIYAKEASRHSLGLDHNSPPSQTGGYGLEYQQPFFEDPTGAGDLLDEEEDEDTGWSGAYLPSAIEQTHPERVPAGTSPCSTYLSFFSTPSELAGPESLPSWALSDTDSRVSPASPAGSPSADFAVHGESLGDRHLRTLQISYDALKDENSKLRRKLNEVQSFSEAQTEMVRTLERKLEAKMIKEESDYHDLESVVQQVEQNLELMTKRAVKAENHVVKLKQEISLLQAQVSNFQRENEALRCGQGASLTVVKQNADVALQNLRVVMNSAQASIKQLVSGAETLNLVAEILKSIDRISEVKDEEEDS
UniProt P11171, whole entry, looked up: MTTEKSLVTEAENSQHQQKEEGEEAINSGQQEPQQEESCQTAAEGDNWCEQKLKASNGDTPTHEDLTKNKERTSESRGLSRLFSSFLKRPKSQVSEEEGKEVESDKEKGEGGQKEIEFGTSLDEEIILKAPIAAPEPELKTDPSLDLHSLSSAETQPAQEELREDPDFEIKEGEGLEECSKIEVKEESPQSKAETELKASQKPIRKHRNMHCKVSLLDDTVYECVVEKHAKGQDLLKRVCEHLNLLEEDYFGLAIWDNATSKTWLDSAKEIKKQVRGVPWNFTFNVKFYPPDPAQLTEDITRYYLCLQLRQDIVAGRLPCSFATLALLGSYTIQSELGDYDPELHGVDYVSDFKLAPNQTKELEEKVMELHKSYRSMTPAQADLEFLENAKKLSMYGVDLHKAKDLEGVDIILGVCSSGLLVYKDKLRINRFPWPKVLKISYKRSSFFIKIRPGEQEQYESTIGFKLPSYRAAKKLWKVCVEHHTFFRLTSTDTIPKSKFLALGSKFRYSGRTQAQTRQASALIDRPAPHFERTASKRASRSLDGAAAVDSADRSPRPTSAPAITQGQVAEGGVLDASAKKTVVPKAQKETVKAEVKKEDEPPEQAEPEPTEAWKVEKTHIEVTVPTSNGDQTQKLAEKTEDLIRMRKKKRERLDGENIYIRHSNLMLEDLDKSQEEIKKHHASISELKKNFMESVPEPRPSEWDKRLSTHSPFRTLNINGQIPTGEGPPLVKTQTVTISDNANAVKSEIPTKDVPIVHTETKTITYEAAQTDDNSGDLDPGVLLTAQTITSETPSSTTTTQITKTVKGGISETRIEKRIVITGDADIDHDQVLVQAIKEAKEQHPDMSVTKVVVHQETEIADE
UniProt Q9H5J4: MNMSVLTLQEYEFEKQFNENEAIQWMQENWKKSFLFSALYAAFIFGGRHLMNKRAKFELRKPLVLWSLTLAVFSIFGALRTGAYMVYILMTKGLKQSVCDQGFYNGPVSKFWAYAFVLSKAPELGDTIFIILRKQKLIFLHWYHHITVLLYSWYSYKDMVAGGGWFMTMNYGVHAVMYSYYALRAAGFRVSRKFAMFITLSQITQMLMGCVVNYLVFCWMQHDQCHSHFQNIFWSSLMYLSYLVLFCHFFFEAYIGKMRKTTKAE
UniProt Q9UKR5: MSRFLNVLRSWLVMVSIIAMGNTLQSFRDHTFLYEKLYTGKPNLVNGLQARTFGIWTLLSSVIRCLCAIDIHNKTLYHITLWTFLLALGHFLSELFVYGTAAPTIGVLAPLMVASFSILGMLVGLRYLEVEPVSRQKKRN
UniProt Q96AY2: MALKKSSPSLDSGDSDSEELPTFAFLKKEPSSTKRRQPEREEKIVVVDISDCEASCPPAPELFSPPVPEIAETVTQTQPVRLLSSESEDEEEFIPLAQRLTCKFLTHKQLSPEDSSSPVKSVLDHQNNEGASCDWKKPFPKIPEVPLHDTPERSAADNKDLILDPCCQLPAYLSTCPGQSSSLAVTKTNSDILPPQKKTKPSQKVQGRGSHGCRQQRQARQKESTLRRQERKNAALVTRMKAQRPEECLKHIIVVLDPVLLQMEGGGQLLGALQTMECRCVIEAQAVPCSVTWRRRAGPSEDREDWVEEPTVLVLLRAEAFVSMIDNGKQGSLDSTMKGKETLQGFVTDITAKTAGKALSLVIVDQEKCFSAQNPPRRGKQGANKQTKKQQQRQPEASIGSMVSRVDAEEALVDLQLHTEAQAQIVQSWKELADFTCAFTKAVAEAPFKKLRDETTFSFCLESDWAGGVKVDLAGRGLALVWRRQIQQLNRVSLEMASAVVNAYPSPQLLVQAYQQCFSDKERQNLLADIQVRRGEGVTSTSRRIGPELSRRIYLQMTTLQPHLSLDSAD
UniProt A1L3X0: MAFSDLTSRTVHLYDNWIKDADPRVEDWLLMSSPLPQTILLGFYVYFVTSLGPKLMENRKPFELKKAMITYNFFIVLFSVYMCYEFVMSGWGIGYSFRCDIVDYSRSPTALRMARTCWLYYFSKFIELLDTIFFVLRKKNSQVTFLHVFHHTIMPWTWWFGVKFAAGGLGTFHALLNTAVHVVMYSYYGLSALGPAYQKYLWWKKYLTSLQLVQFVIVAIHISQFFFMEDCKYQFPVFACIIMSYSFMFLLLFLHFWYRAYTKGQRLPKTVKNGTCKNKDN
UniProt O60516: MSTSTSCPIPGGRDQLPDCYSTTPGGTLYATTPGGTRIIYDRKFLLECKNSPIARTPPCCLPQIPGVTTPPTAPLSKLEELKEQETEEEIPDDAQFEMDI
UniProt P19419: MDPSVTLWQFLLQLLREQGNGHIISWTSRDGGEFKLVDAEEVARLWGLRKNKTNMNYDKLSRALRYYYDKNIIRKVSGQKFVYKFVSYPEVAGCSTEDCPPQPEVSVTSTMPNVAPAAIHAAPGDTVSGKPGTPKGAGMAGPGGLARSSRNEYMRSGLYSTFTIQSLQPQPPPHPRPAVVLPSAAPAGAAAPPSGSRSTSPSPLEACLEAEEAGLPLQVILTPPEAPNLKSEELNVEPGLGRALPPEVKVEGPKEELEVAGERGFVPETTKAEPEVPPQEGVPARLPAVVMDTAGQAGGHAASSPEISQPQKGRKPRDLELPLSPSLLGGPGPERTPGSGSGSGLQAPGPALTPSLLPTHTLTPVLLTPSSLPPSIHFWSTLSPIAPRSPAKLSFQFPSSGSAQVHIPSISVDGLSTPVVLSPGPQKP
UniProt O43491, whole entry, looked up: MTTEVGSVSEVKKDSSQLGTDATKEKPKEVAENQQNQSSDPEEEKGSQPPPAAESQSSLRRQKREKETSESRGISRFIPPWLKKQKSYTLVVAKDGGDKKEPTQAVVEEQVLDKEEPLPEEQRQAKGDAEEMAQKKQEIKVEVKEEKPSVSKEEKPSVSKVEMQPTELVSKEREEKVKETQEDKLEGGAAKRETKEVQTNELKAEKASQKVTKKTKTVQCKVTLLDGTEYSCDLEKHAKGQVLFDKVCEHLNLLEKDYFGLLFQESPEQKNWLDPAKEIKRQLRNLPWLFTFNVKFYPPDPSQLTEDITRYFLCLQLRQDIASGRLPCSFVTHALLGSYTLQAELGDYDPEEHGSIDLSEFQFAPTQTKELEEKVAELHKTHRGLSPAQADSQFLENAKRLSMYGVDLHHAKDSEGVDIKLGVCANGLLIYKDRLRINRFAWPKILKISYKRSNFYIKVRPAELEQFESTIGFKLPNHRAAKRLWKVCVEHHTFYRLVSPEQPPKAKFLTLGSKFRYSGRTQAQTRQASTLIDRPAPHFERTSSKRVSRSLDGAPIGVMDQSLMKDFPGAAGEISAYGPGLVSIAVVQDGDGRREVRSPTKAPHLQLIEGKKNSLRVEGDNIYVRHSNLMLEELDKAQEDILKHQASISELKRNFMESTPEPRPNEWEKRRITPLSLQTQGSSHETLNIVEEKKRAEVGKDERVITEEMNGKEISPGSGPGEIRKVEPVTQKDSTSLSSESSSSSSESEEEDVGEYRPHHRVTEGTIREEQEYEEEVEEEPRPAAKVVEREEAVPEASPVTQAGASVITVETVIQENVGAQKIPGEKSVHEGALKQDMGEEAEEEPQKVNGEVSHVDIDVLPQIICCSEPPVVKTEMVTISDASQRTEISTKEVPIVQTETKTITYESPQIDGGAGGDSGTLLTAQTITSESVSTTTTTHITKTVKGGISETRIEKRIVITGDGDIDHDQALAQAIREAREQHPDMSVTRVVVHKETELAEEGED

Legend:
Experiment in all cases: log2 fold change, soluble protein after heating vs DMSO (PISA); higher = thermal stabilisation; K562 lysate, 10 uM; active = over 0.2 and 3.5 SD of the protein, either way, in both replicates (recomputed)
lapatinib = compound: CS(=O)(=O)CCNCc1ccc(-c2ccc3ncnc(Nc4ccc(OCc5cccc(F)c5)c(Cl)c4)c3c2)o1 [lapatinib]
Summary of the method: (§1)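 Values give the log-two fold change in thermal stability against solvent controls, from duplicates. Crude K562 extract at 1 mg/mL protein, made by dounce homogenisation in PBS pH 7.4 with 1 mM MgCl2, was treated with 10 μM compound for 30 min. After 3 min heating across 48°C-58°C, aliquots were pooled, adjusted to 0.5% NP-40 at 4°C and centrifuged at 21,000xg for 90 min. The supernatant was measured by TMTpro 16plex LC-MS/MS with channel sums equalised.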

pictilisib = compound: CS(=O)(=O)N1CCN(Cc2cc3nc(-c4cccc5[nH]ncc45)nc(N4CCOCC4)c3s2)CC1 [pictilisib]
Summary of the method: as §1

[1] = compound: C[C@H](C1=CC=C(C=C1)C(=O)NC2=C3C=CNC3=NC=C2)N
Summary of the method: as §1

duvelisib = compound: C[C@H](Nc1ncnc2nc[nH]c12)c1cc2cccc(Cl)c2c(=O)n1-c1ccccc1 [duvelisib]
Summary of the method: as §1

gandotinib = compound: Cc1cc(Nc2cc(CN3CCOCC3)c3nc(C)c(Cc4ccc(Cl)cc4F)n3n2)n[nH]1 [gandotinib]
Summary of the method: as §1

tozasertib = compound: Cc1cc(Nc2cc(N3CCN(C)CC3)nc(Sc3ccc(NC(=O)C4CC4)cc3)n2)n[nH]1 [tozasertib]
Summary of the method: as §1

doramapimod = compound: Cc1ccc(-n2nc(C(C)(C)C)cc2NC(=O)Nc2ccc(OCCN3CCOCC3)c3ccccc23)cc1 [doramapimod]
Summary of the method: as §1

bafetinib = compound: Cc1ccc(NC(=O)c2ccc(CN3CC[C@H](N(C)C)C3)c(C(F)(F)F)c2)cc1Nc1nccc(-c2cncnc2)n1 [bafetinib]
Summary of the method: as §1

[2] = compound: Cc1cccc(CC(=O)N2CCc3c2ccc(-c2cn(C)c4ncnc(N)c24)c3F)n1
Summary of the method: as §1

nilotinib = compound: Cc1cn(-c2cc(NC(=O)c3ccc(C)c(Nc4nccc(-c5cccnc5)n4)c3)cc(C(F)(F)F)c2)cn1 [nilotinib]
Summary of the method: as §1

[3] = compound: Cc1nc(Nc2n[nH]c3c2CN(C(=O)N[C@H](CN(C)C)c2ccccc2)C3(C)C)c2sccc2n1
Summary of the method: as §1

dasatinib = compound: Cc1nc(Nc2ncc(C(=O)Nc3c(C)cccc3Cl)s2)cc(N2CCN(CCO)CC2)n1 [dasatinib]
Summary of the method: as §1

[4] = compound: Cc1ncc(-c2ccnc(Nc3ccc(S(C)(=O)=O)cc3)n2)n1C(C)C
Summary of the method: as §1

[5] = compound: Cn1cc(-c2ccc3c(c2)CCN3C(=O)Cc2cccc(C(F)(F)F)c2)c2c(N)ncnc21
Summary of the method: as §1

quisinostat = compound: Cn1cc(CNCC2CCN(c3ncc(C(=O)NO)cn3)CC2)c2ccccc21 [quisinostat]
Summary of the method: as §1

tipifarnib = compound: Cn1cncc1[C@@](N)(c1ccc(Cl)cc1)c1ccc2c(c1)c(-c1cccc(Cl)c1)cc(=O)n2C [tipifarnib]
Summary of the method: as §1

[6] = compound: NC(=O)Nc1cc(-c2cccc(F)c2)sc1C(=O)N[C@H]1CCCNC1
Summary of the method: as §1

[7] = compound: NC(=O)c1cnc(N[C@@H]2CCCC[C@@H]2N)nc1Nc1cccc(-n2nccn2)c1
Summary of the method: as §1

[8] = compound: NC1(c2ccc(-c3nc4ccn5c(=O)[nH]nc5c4cc3-c3ccccc3)cc2)CCC1
Summary of the method: as §1

crizotinib = compound: C[C@@H](Oc1cc(-c2cnn(C3CCNCC3)c2)cnc1N)c1c(Cl)ccc(F)c1Cl [crizotinib]
Summary of the method: as §1

Measured: log2 fold change

EML4 (UniProt Q9HC35)
inactive: lapatinib 0 | pictilisib 0.001 | [1] -0.065 | duvelisib 0.017 | gandotinib 0.037 | tozasertib -0.033 | doramapimod 0.011 | bafetinib -0.03 | [2] 0.025 | nilotinib -0.001 | [3] -0.001 | dasatinib -0.017 | [4] 0.016 | [5] -0.01 | quisinostat -0.055 | tipifarnib -0.005 | [6] 0.011 | [7] 0.002 | [8] 0.001

EPB41L5 (UniProt Q9HCM4)
inactive: lapatinib 0.069 | pictilisib -0.033 | crizotinib -0.079 | [1] -0.129 | gandotinib -0.027 | tozasertib 0.014 | doramapimod 0.155 | bafetinib -0.153 | [2] 0.09 | quisinostat -0.062 | [6] 0.012 | [7] -0.126 | [8] 0.035

ELOF1 (UniProt P60002)
inactive: lapatinib 0.082 | pictilisib -0.058 | crizotinib -0.228 | [1] -0.061 | duvelisib 0.105 | gandotinib -0.058 | doramapimod 0.165 | bafetinib 0.122 | [2] -0.032 | dasatinib -0.224 | [5] -0.02 | quisinostat 0.33 | [6] -0.18 | [7] -0.024 | [8] -0.055

EMC1 (UniProt H7C5A2)
inactive: lapatinib -0.044 | crizotinib 0.064 | duvelisib -0.13 | doramapimod -0.095 | dasatinib -0.08 | [5] -0.004 | quisinostat 0.075 | [6] 0.195 | [7] 0.349 | [8] -0.273

Copied from the listing (2 entries):
EPB41L5 (UniProt Q9HCM4)
inactive: lapatinib 0.069 | pictilisib -0.033 | crizotinib -0.079 | [1] -0.129 | gandotinib -0.027 | tozasertib 0.014 | doramapimod 0.155 | bafetinib -0.153 | [2] 0.09 | quisinostat -0.062 | [6] 0.012 | [7] -0.126 | [8] 0.035

ELOF1 (UniProt P60002)
inactive: lapatinib 0.082 | pictilisib -0.058 | crizotinib -0.228 | [1] -0.061 | duvelisib 0.105 | gandotinib -0.058 | doramapimod 0.165 | bafetinib 0.122 | [2] -0.032 | dasatinib -0.224 | [5] -0.02 | quisinostat 0.33 | [6] -0.18 | [7] -0.024 | [8] -0.055

Later entries.

ENTPD7 (UniProt Q9NQZ7)
inactive: lapatinib 0.082 | [1] -0.121 | gandotinib -0.096 | tozasertib 0.023 | [2] 0.213 | nilotinib -0.094 | [3] -0.27 | [4] -0.044 | tipifarnib -0.094 | [7] 0.069

ELP5 isoform 2 (UniProt Q8TE02)
inactive: [1] -0.254 | gandotinib 0.219 | [2] 0.192

EIF2AK3 (UniProt Q9NZJ5)
active: [2] 1.48
inactive: lapatinib 0.3 | [1] -0.051 | duvelisib -0.122 | gandotinib -0.212 | nilotinib 0.124 | [3] 0.012 | dasatinib -0.385 | [4] -0.001 | [5] 0.269 | tipifarnib -0.088 | [7] 0.104 | [8] -0.166

ENO3 (UniProt K7EKN2)
inactive: lapatinib -0.082 | [7] 0.151

EIF4E3 (UniProt Q8N5X7)
inactive: crizotinib 0.107 | [1] -0.414 | gandotinib 0.184 | tozasertib 0.07 | doramapimod -0.086 | [2] -0.118 | nilotinib 0 | [3] -0.052 | [4] -0.098 | quisinostat 0.11 | tipifarnib -0.246 | [6] 0.037 | [8] -0.051

EPS15L1 (UniProt M0QY01)
inactive: lapatinib 0.014 | [1] -0.036 | duvelisib -0.02 | gandotinib 0.073 | tozasertib -0.07 | [2] -0.027 | dasatinib -0.067 | [5] -0.003 | [7] -0.026 | [8] -0.026

EIF4G1 isoform 5 (UniProt Q04637)
inactive: lapatinib 0.011 | nilotinib -0.108 | [3] -0.005 | [4] 0.121 | tipifarnib 0.05 | [7] 0.125

EPB41L5 isoform 2 (UniProt Q9HCM4)
inactive: lapatinib -0.17 | [7] 0.051

EPN1 isoform 3 (UniProt Q9Y6I3)
inactive: lapatinib 0.004 | crizotinib -0.006 | [1] -0.065 | duvelisib -0.093 | gandotinib 0.163 | doramapimod -0.047 | [2] -0.029 | nilotinib 0.173 | [3] 0.067 | dasatinib -0.113 | [4] -0.253 | [5] -0.154 | quisinostat 0.009 | tipifarnib -0.273 | [6] -0.23 | [7] 0.041 | [8] 0

ELAVL4 (UniProt P26378)
inactive: lapatinib -0.017 | crizotinib -0.065 | [1] -0.064 | duvelisib 0.03 | gandotinib -0.034 | tozasertib 0.05 | doramapimod 0.035 | [2] -0.061 | nilotinib -0.07 | [3] -0.062 | dasatinib 0.006 | [4] 0.092 | [5] 0.039 | quisinostat -0.07 | tipifarnib -0.06 | [6] 0.07 | [7] 0.01 | [8] 0.024

ENTR1 (UniProt Q96C92)
inactive: crizotinib -0.108 | tozasertib -0.001 | doramapimod 0.066 | nilotinib 0.005 | [3] 0.004 | [4] -0.088 | quisinostat -0.112 | tipifarnib -0.051 | [6] -0.006

EPHB6 (UniProt O15197)
inactive: [1] 0.139 | gandotinib -0.206 | tozasertib -0.034 | [2] -0.02 | nilotinib 0.058 | [3] -0.028 | [4] -0.037 | tipifarnib 0.016

EIF4G3, A0A0A0MSA7
inactive: duvelisib 0.007 | dasatinib -0.054 | [5] -0.018

EIF4A1 (UniProt J3KS25)
inactive: tozasertib -0.12

EMC1 isoform 3 (UniProt Q8N766)
inactive: lapatinib -0.259 | crizotinib 0.032 | doramapimod 0.03 | quisinostat -0.052 | [6] 0.008 | [7] -0.007

EPB41 isoform 4 (UniProt P11171)
inactive: lapatinib 0.014 | crizotinib -0.038 | [1] 0.012 | gandotinib -0.004 | doramapimod 0.046 | [2] -0.024 | nilotinib 0.124 | [3] 0.044 | [4] -0.165 | quisinostat -0.077 | tipifarnib 0.036 | [6] 0.053 | [7] 0.089 | [8] -0.096

ELOVL6 (UniProt Q9H5J4)
inactive: lapatinib -0.306 | crizotinib -0.213 | [1] -0.09 | duvelisib -0.132 | gandotinib 0.202 | doramapimod -0.057 | [2] 0.2 | nilotinib -0.001 | [3] -0.077 | dasatinib -0.198 | [4] -0.043 | [5] 0.169 | quisinostat 0.093 | tipifarnib -0.103 | [6] 0.19 | [7] -0.307 | [8] 0.076

ERG28 (UniProt Q9UKR5)
inactive: lapatinib 0.008 | pictilisib 0.049 | duvelisib 0.014 | gandotinib -0.349 | tozasertib -0.11 | bafetinib 0.041 | [2] -0.392 | dasatinib 0.029 | [5] 0.059 | [7] -0.015
active: [1] 0.593

Random excerpt: two entries already listed, in no set order.
EIF4G1 isoform 5 (UniProt Q04637)
inactive: lapatinib 0.011 | nilotinib -0.108 | [3] -0.005 | [4] 0.121 | tipifarnib 0.05 | [7] 0.125

EIF4A1 (UniProt J3KS25)
inactive: tozasertib -0.12

Next part:

EME1 isoform 2 (UniProt Q96AY2)
inactive: pictilisib -0.066 | crizotinib -0.077 | [1] 0.038 | gandotinib -0.06 | tozasertib 0.042 | doramapimod 0.125 | bafetinib -0.102 | [2] -0.065 | quisinostat -0.235 | [6] 0.067

EIF3I (UniProt Q5TFK1)
inactive: lapatinib -0.063 | [1] 0.137 | gandotinib 0.052 | [2] 0.112 | nilotinib 0.108 | [3] -0.239 | [4] -0.035 | tipifarnib -0.511 | [7] 0.387

ELOVL7 (UniProt A1L3X0)
inactive: lapatinib -0.122 | pictilisib -0.057 | duvelisib 0.045 | bafetinib -0.223 | nilotinib 0.048 | [3] 0.046 | dasatinib -0.111 | [4] -0.004 | [5] -0.102 | tipifarnib -0.088 | [7] 0.099 | [8] 0.117

EIF4EBP3 (UniProt O60516)
inactive: [8] 0.047

ELK1 (UniProt P19419)
inactive: pictilisib -0.187 | [1] -0.032 | duvelisib -0.009 | gandotinib 0.011 | tozasertib 0.374 | bafetinib 0.047 | [2] 0.007 | dasatinib -0.317 | [5] -0.027

ERF (UniProt P50548)
inactive: crizotinib 0.096 | duvelisib 0.032 | doramapimod -0.044 | nilotinib 0.038 | [3] 0.001 | dasatinib 0.042 | [4] -0.096 | [5] 0.089 | quisinostat -0.056 | tipifarnib -0.094 | [6] 0.027 | [8] -0.127

EPB41L2 isoform 4 (UniProt O43491)
inactive: lapatinib 0.009 | pictilisib 0.036 | [1] -0.122 | gandotinib 0.169 | bafetinib -0.073 | [2] 0.046 | nilotinib -0.016 | [3] -0.052 | [4] 0.049 | tipifarnib 0.083 | [7] 0.027

ERCC6 (UniProt P0DP91)
inactive: pictilisib 0.089 | duvelisib 0.132 | tozasertib -0.249 | bafetinib -0.332 | nilotinib 0 | [3] 0.02 | dasatinib -0.093 | [4] -0.036 | [5] 0.048 | tipifarnib -0.023 | [8] 0.193

EML5 isoform 5 (UniProt Q05BV3)
inactive: lapatinib -0.032 | crizotinib -0.062 | [1] -0.098 | duvelisib -0.003 | gandotinib 0.065 | doramapimod -0.025 | [2] 0.059 | nilotinib -0.007 | [3] -0.047 | dasatinib -0.115 | [4] 0.009 | [5] 0.157 | quisinostat -0.176 | tipifarnib -0.026 | [6] 0.08 | [7] 0.006 | [8] -0.02
